Experimental data reported in PubChem BioAssay AID2685 (National Center for Advancing Translational Sciences (NCATS), 2010).
About 2,100 (0.66%) of roughly 320,000 compounds were called active. Inconclusive results, whose numbers are uncertain, are shown with a selection of clear calls. Calls follow the shape of the dose curve; as a rule, active = well fitted inhibition curve with a large enough effect in the signal ratio, with a control signal flat (not every such curve was filed as active); inconclusive = small, poorly fitted or top-dose-only effect, or effect the other way, or a change in a side signal; inactive = flat fitted curve, though single readings scatter; the % refers to the signal ratio. Potencies beside an inconclusive call are fits to weak or partial responses and may not hold up.

Test: qHTS Assay for Lipid Storage Modulators in Drosophila S3 Cells
Details: BODIPY lipid droplet fluorescence, 18-24 h, cells fed with added oleic acid; lipid storage change, negative = inhibition: at 46.1 µM (top of the series) unless noted
Summary of the method: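 Laser-scanning cytometry quantifies lipid droplet accumulation (500–530 nm total intensity; droplet/cell object ratio) in oleic acid-fed (400 uM added) Drosophila S3 cells treated with a concentration series. 20 uM Triacsin C defined 100% inhibition.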
% is scaled to controls: 0 for no effect and ±100 for the full control effect; potency is read from the fitted curve at half-maximal effect.

Row | SMILES | lipid storage change, negative = inhibition | Potency
1 | Cc1cccc(CSc2ncccc2C(=O)O)c1 | inconclusive: 22.3% | –
2 | O=C(Nc1ccc(N2CCN(C(=O)c3cccs3)CC2)cc1)c1ccc(F)cc1 | inconclusive: -35% | –
3 | CCOc1ccc(-n2nc3c(=S)[nH]nc(C)c3c2C)cc1 | inconclusive: -0.7% | –
4 | CCCCOc1ccc(NC(=O)C(=O)NCCCn2ccnc2)cc1 | inconclusive: 37.3% | –
5 | Cn1c(SCc2ccccc2)nc2ccsc2c1=O | inconclusive: 32.5% | –
6 | CCOC(=O)N1CCN(C(=O)CSC2=NS(=O)(=O)c3ccccc3N2)CC1 | inconclusive: 66.7% | –
7 | CN1CCN(/C=N/c2c(C#N)cnn2-c2ccccc2)CC1 | inconclusive: 30.7% | –
8 | COc1ccc(C(=O)/C=C/Nc2ccc([N+](=O)[O-])cc2)cc1 | – | inconclusive: 7.31 µM [falling, single point]
9 | CC1=NN(c2ccc(Cl)cc2)C(=O)C1 | inconclusive: -12% | –
10 | CCOc1ccc(-c2[nH]nc3c2C(c2ccc4c(c2)OCO4)C(C#N)=C(N)O3)cc1OC (configuration not stated) | inconclusive: 67.9% | –
11 | O=S(=O)(c1ccccc1)N1N=C(c2cccs2)CC1c1ccc(F)cc1 (configuration not stated) | inconclusive: -0.579% | –
12 | Cc1ccccc1CSCC(=O)Nc1ccccc1F | – | inconclusive: 5.8 µM [activator, single point]
13 | O=C(O)CC1(CC(=O)Nc2cccc(C(F)(F)F)c2)CCCC1 | inconclusive: 16% | –
14 | O=C(Nc1nccs1)C1CC(=O)N(CCc2ccccc2)C1 (configuration not stated) | inconclusive | –
15 | Cc1ccc(NS(=O)(=O)c2cccc3cccnc23)cc1Cl | inconclusive: -21.3% | –
16 | NC(=S)N/N=C/c1c[nH]c2ccccc12 | inconclusive: 14.3% | –
17 | CCCCNC(=O)c1cccc(S(=O)(=O)N2CC3(C)CC2CC(C)(C)C3)c1 (configuration not stated) | – | inconclusive: 11.6 µM [falling, partial curve, poor fit]
18 | CC1CCN(C2CC(=O)N(c3ccccc3)C2=O)CC1 (configuration not stated) | – | inconclusive: 6.51 µM [falling, single point]
19 | CC(=O)c1cccc(NC(=O)CN2C(=O)C(=O)N(Cc3ccco3)C2=O)c1 | – | inconclusive: 4.61 µM [activator, partial curve, poor fit]
20 | Cc1nn(C)cc1CNC(=O)c1cnn2c(C(F)F)cc(C3CC3)nc12 | – | inconclusive: 0.82 µM [activator, partial curve]
21 | O=S(=O)(c1ccc(-c2cnc(C3CC3)o2)cc1)N1CCN(c2ccccc2)CC1 | inconclusive: -28.9% | –
22 | CC(=O)c1ccc(NC(=O)CN2C(=O)COc3ccc(Cl)cc32)cc1 | inconclusive: -25% | –
23 | Cc1ccc(-c2cn(-c3ccccc3)c(SCC(N)=O)n2)cc1C | inconclusive: -21.9% | –
24 | O=[N+]([O-])c1cccc(C2=NCCC(c3ccccc3)O2)c1 (configuration not stated) | inconclusive: 23.6% | –
25 | CC(=O)OC1OCCOC1NC(=S)Nc1ccc(C)cc1 (configuration not stated) | inconclusive: -3.63% | –
26 | CN(C)S(=O)(=O)c1ccc(C(=O)OCc2ccc(C#N)cc2)cc1 | – | inconclusive: 29.1 µM [falling, single point]

Row | SMILES | lipid storage change, negative = inhibition | Potency
27 | Cc1ccc(NC(=O)C2CCCNC2=O)nc1 (configuration not stated) | – | inconclusive: 1.84 µM [falling, partial curve]
28 | O=C(CCc1ccc(S(=O)(=O)N2CCOCC2)cc1)N/N=C/c1ccc(O)c(O)c1O | inconclusive: 17.9% | –
29 | CCCS(=O)(=O)c1nc(S(=O)(=O)c2ccc(C)cc2)c(N2CCCC(C)C2)s1 (configuration not stated) | – | inconclusive: 6.51 µM [falling, full curve]
30 | CC(C)(Oc1ccc(Cl)cc1)C(=O)NC1CC1 | inconclusive: -6.19% | –
31 | O=C1NCCCC1C(=O)N/N=C/c1ccc([N+](=O)[O-])cc1 (configuration not stated) | inconclusive: 41.1% | –
32 | COc1ccc(N(C(=O)c2snc(C(N)=O)c2N)C(C(=O)NC2CCCC2)c2ccc(C)o2)c(OC)c1 (configuration not stated) | inconclusive: -11.8% | –
33 | CN(CC(=O)Nc1ccc(F)cc1)C(=O)CN1C(=O)c2cccc([N+](=O)[O-])c2C1=O | – | inconclusive: 29.1 µM [activator, single point]
34 | c1cc[n+](CCC[n+]2ccccc2)cc1 | – | inconclusive: 29.1 µM [activator, single point]
35 | CCC(=O)Nc1c(C)nn(-c2ccc(C)c(C)c2)c1C | inconclusive: -0.0306% | –
36 | Cn1c(C(O)c2ccc(Br)cc2)nc(Cl)c1Cl (configuration not stated) | inconclusive: 17.3% | –
37 | O=C(CCl)NCCCCCCCCCNC(=O)CCl | inconclusive: -29.4% | –
38 | CCC(C)NCCOCCSc1ccc(Cl)cc1 (configuration not stated) | inactive | –
39 | O=C(CCCn1cncn1)N1CCCC(N2CCN(c3ccc(F)cc3)CC2)C1 (configuration not stated) | inconclusive: -36.8% | –
40 | CCC(C)NC(=O)c1cnc2n(c1=O)CCS2 (configuration not stated) | inconclusive: -35.2% | –
41 | NCCCSC1=NCCCN1 | – | inconclusive: 29.1 µM [falling, single point]
42 | CCOc1ccccc1N1CCN(Cc2cnc(-c3ccccc3)[nH]2)CC1 | inconclusive: -12.3% | –
43 | O=c1[nH]c2ccccc2n1CCCN1CCN(C(c2ccccc2)c2ccccc2)CC1 | inconclusive: 11.9% | –
44 | Cc1cc(NC(=O)Nc2cc(F)ccc2F)no1 | inconclusive: 29.9% | –
45 | Cc1ccc(NC(=O)C2CCCN2c2nn3c(=O)cc(C)nc3s2)cc1 (configuration not stated) | inconclusive: 30.6% | –
46 | CCOC(=O)c1oc2cc(O)cc(C)c2c(=O)c1-c1cscn1 | inconclusive: -2.63% | –
47 | COC(=O)c1[nH]c2cccc(C)c2c1NC(=O)CN1CCN(C(=O)c2ccco2)CC1 | – | inconclusive: 0.58 µM [activator, single point]
48 | Cc1ccc(CS(=O)(=O)CCC(=O)NCCC(C)C)cc1 | inconclusive: -40.1% | –
49 | COc1cc(NC(=O)CCCNC(=O)Cn2cnc3sc4c(c3c2=O)CCCC4)cc(OC)c1OC | – | inconclusive: 0.0046 µM [activator, full curve, poor fit]
50 | C/C=C/c1ccc(OCCOc2ccc(C=O)cc2)c(OC)c1 | inconclusive: 19.8% | –
51 | CC1(C)Oc2ccc(C(=O)NNC(=O)Nc3ccccc3)cc2NC1=O | inconclusive: 12.4% | –
52 | CC(C)=C1SC(N2CCN(c3cccc(Cl)c3)CC2)=NC1=O | inactive | –

Some values from the results shown.
Potency with c1cc[n+](CCC[n+]2ccccc2)cc1 reads inconclusive: 29.1 µM [activator, single point]
lipid storage change, negative = inhibition with COc1ccc(N(C(=O)c2snc(C(N)=O)c2N)C(C(=O)NC2CCCC2)c2ccc(C)o2)c(OC)c1 (configuration not stated) reads inconclusive: -11.8%
lipid storage change, negative = inhibition with CC(C)=C1SC(N2CCN(c3cccc(Cl)c3)CC2)=NC1=O reads inactive
lipid storage change, negative = inhibition with CCOC(=O)c1oc2cc(O)cc(C)c2c(=O)c1-c1cscn1 reads inconclusive: -2.63%
